Paper PMC5417508
No constants are given. Whether binding was seen depends on the method and setting. Binding seen in cells or lysates may run through a third protein. Some results given as binding are weak or reduced against the parent protein; the word gives no strength.

By UniProt entry, the sequences of proteins in these tests, tags left out. Where a name states a change or a piece, a line headed by the entry shows the natural chain unless it says otherwise. Chains listed by the source or under a name are the forms on record and can include a tag or linker.
UniProt P08588: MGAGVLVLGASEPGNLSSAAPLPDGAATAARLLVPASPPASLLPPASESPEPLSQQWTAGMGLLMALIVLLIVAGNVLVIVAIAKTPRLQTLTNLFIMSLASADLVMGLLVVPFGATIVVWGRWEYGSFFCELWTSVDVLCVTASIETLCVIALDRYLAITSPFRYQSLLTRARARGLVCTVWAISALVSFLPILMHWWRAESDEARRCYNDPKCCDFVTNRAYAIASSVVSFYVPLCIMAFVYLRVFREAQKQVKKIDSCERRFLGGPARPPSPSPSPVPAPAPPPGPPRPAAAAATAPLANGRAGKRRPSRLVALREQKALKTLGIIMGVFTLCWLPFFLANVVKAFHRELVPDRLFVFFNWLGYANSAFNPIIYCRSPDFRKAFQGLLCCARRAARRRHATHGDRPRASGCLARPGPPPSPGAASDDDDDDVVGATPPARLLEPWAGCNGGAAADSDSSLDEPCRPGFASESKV
ADRB1 with alanine substitutions in the middle part of the C-terminus, Cerulean-tagged (P08588, form named): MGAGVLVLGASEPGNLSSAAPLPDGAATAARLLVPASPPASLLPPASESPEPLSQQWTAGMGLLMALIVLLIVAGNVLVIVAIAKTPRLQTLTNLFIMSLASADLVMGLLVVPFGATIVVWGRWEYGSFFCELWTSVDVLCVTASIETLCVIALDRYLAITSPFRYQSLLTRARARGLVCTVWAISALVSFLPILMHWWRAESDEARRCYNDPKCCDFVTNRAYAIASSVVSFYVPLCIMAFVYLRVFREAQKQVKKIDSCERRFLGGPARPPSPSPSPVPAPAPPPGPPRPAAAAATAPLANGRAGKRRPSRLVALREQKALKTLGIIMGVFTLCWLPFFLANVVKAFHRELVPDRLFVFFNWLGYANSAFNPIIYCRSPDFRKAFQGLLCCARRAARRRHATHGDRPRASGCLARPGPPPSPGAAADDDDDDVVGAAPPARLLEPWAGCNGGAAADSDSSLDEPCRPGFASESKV
ADRB1(Ala473/Ala475), Cerulean-tagged (P08588, form named): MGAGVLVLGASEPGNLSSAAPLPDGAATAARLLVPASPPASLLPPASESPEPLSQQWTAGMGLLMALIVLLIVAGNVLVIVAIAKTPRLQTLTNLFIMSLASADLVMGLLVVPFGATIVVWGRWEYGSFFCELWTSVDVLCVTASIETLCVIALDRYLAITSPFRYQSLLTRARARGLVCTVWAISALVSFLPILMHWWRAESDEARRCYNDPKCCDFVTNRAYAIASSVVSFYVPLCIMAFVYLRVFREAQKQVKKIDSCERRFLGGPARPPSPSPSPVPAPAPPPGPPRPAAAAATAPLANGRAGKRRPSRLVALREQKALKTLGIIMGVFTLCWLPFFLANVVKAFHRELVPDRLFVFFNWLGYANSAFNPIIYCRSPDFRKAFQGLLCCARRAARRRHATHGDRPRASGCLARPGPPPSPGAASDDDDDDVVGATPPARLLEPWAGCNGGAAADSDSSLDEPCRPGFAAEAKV
ADRB1(Ala412), Cerulean-tagged (P08588, form named): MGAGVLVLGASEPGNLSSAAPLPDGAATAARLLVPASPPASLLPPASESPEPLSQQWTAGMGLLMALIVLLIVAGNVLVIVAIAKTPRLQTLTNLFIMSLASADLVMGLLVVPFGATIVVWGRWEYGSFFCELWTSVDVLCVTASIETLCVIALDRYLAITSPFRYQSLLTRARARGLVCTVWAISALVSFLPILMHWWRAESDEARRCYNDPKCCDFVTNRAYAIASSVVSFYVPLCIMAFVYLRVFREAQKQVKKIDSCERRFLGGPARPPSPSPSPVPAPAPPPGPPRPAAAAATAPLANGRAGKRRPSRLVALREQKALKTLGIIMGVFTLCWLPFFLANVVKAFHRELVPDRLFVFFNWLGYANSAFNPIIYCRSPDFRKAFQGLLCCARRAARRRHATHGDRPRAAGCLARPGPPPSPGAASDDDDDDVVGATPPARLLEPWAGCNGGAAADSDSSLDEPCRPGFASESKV
ADRB1Δ3rdloop^a (ADRB1(Ala260)), Cerulean-tagged (P08588, form named): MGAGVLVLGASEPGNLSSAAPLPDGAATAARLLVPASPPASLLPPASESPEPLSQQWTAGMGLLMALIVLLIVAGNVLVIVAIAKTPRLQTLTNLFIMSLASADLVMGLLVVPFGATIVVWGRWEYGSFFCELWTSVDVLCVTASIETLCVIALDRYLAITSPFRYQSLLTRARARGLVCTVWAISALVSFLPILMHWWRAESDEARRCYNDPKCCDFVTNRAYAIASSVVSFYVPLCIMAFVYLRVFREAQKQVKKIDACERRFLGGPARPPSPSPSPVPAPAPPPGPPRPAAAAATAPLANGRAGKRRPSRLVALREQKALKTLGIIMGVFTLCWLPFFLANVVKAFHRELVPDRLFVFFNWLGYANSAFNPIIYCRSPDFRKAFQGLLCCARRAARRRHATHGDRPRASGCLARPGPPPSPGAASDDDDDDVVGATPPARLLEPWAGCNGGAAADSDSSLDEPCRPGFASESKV
ADRB1 Δproximal C-terminus, Cerulean-tagged (P08588, form named): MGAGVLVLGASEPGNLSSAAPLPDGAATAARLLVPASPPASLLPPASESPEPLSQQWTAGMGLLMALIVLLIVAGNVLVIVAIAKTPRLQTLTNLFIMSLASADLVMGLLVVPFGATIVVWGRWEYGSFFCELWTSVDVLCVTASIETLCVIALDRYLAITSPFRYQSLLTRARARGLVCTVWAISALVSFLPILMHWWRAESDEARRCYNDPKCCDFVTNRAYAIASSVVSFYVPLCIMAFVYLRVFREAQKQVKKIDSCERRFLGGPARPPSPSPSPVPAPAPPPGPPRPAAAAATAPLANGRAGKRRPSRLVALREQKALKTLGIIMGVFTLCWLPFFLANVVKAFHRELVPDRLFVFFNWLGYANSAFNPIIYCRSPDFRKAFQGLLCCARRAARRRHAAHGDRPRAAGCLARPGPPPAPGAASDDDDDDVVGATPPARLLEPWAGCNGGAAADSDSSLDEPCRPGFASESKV

Key:
Assay in all cases: FRET or BRET; receptor-arrestin FRET in single living HEK293 cells co-transfected with ADRB1-Cer constructs and YFP-ARRB2; superfused with FRET buffer (137 mM NaCl, 4.5 mM KCl, 10 mM HEPES, 2 mM CaCl2, 2 mM MgCl2, pH 7.4) or 10 μM norepinephrine, room temperature; YFP/Cer ratio; also 0.1 μM and 1 μM norepinephrine (S3 Fig)
[1] = molecular target: ADRB1 with alanine substitutions in the middle part of the C-terminus, Cerulean-tagged (human) (UniProt P08588)
[2] = molecular target: human β1-adrenoceptor (ADRB1), wild type, Cerulean-tagged (human) (UniProt P08588)
[3] = molecular target: ADRB1(Ala473/Ala475), Cerulean-tagged (human) (UniProt P08588)
[4] = molecular target: ADRB1(Ala412), Cerulean-tagged (human) (UniProt P08588)
[5] = molecular target: ADRB1Δ3rdloop^a (ADRB1(Ala260)), Cerulean-tagged (human) (UniProt P08588)
[6] = molecular target: ADRB1 Δproximal C-terminus, Cerulean-tagged (human) (UniProt P08588)

binding [1]: binds | binding [2]: binds | binding [3]: binds | binding [4]: binds | binding [5]: binds | binding [6]: binds
Substance: YFP-β-arrestin2 (from UniProt P32121 1-409)
